The text below walks through data of doi:10.1101/617571.

By UniProt entry, the sequences of proteins in these tests, tags left out.
UniProt Q8IHZ9: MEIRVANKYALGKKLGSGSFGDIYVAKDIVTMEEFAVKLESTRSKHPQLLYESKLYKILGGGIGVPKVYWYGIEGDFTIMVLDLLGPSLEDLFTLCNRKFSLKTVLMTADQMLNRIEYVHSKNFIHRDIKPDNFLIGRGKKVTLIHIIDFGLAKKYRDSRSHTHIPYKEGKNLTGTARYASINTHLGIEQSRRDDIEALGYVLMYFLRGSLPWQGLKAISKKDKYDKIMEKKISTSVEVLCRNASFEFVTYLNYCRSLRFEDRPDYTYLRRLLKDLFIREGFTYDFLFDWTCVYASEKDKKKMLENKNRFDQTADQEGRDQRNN

For the assay, the target named is Plasmodium falciparum casein kinase 1, GFP-tagged (PfCK1-GFP) (Plasmodium falciparum (3D7)) (UniProt Q8IHZ9). As to the kind of experiment: co-IP.

These are yes or no findings as the source states them, for the method shown. Binding seen in cells or lysates may run through a third protein. Some binding calls cover weakened binding; strength is not graded here.

B1: Sorting nexin 22 (SNX22) (protein, UniProt Q96L94 1-193)
chain: MLEVHIPSVGPEAEGPRQSPEKSHMVFRVEVLCSGRRHTVPRRYSEFHALHKRIKKLYKVPDFPSKRLPNWRTRGLEQRRQGLEAYIQGILYLNQEVPKELLEFLRLRHFPTDPKASNWGTLREFLPGDSSSQQHQRPVLSFHVDPYVCNPSPESLPNVVVNGVLQGLYSFSISPDKAQPKAACHPAPLPPMP
Consider B1, for which the binding result is reported as “binds”.

B2: GTPase-activating protein and Vps9 domain-containing protein 1 (GAPVD1) (protein, UniProt Q14C86 1-1478)
chain: MVKLDIHTLAHHLKQERLYVNSEKQLIQRLNADVLKTAEKLYRTAWIAKQQRINLDRLIITSAEASPAECCQHAKILEDTQFVDGYKQLGFQETAYGEFLSRLRENPRLIASSLVAGEKLNQENTQSVIYTVFTSLYGNCIMQEDESYLLQVLRYLIEFELKESDNPRRLLRRGTCAFSILFKLFSEGLFSAKLFLTATLHEPIMQLLVEDEDHLETDPNKLIERFSPSQQEKLFGEKGSDRFRQKVQEMVESNEAKLVALVNKFIGYLKQNTYCFPHSLRWIVSQMYKTLSCVDRLEVGEVRAMCTDLLLACFICPAVVNPEQYGIISDAPINEVARFNLMQVGRLLQQLAMTGSEEGDPRTKSSLGKFDKSCVAAFLDVVIGGRAVETPPLSSVNLLEGLSRTVVYITYSQLITLVNFMKSVMSGDQLREDRMALDNLLANLPPAKPGKSSSLEMTPYNTPQLSPATTPANKKNRLPIATRSRSRTNMLMDLHMDHEGSSQETIQEVQPEEVLVISLGTGPQLTPGMMSENEVLNMQLSDGGQGDVPVDENKLHGKPDKTLRFSLCSDNLEGISEGPSNRSNSVSSLDLEGESVSELGAGPSGSNGVEALQLLEHEQATTQDNLDDKLRKFEIRDMMGLTDDRDISETVSETWSTDVLGSDFDPNIDEDRLQEIAGAAAENMLGSLLCLPGSGSVLLDPCTGSTISETTSEAWSVEVLPSDSEAPDLKQEERLQELESCSGLGSTSDDTDVREVSSRPSTPGLSVVSGISATSEDIPNKIEDLRSECSSDFGGKDSVTSPDMDEITHGAHQLTSPPSQSESLLAMFDPLSSHEGASAVVRPKVHYARPSHPPPDPPILEGAVGGNEARLPNFGSHVLTPAEMEAFKQRHSYPERLVRSRSSDIVSSVRRPMSDPSWNRRPGNEERELPPAAAIGATSLVAAPHSSSSSPSKDSSRGETEERKDSDDEKSDRNRPWWRKRFVSAMPKAPIPFRKKEKQEKDKDDLGPDRFSTLTDDPSPRLSAQAQVAEDILDKYRNAIKRTSPSDGAMANYESTGDNHDRDLSSKLLYHSDKEVMGDGESAHDSPRDEALQNISADDLPDSASQAAHPQDSAFSYRDAKKKLRLALCSADSVAFPVLTHSTRNGLPDHTDPEDNEIVCFLKVQIAEAINLQDKNLMAQLQETMRCVCRFDNRTCRKLLASIAEDYRKRAPYIAYLTRCRQGLQTTQAHLERLLQRVLRDKEVANRYFTTVCVRLLLESKEKKIREFIQDFQKLTAADDKTAQVEDFLQFLYGAMAQDVIWQNASEEQLQDAQLAIERSVMNRIFKLAFYPNQDGDILRDQVLHEHIQRLSKVVTANHRALQIPEVYLREAPWPSAQSEIRTISAYKTPRDKVQCILRMCSTIMNLLSLANEDSVPGADDFVPVLVFVLIKANPPCLLSTVQYISSFYASCLSGEESYWWMQFTAAVEFIKTIDDRK
Consider B2, for which the binding result is listed as “binds”.
